# Measurements taken from the supplement of paper PMC12889115.
# Some of the results follow. Values are raw readings; no control value is given beside them.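 Primary screen: polymyxin B was added at a level permeabilizing Salmonella outer membranes while sparing inner membranes. DMSO wells, both with and without polymyxin B, established maximum growth. Plate-to-plate variation meant each plate was ranked on its own, and the lowest-OD600 compounds were selected as hits.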
# Test system: Salmonella enterica serovar Typhimurium SL1344
# Test: bacterial growth OD600 after 18 h with compound and polymyxin B; higher = more bacterial growth (less inhibition)
# Details: 50 µM, Mueller-Hinton broth
Compound,bacterial growth OD600 (polymyxin B 1 µg/mL),bacterial growth OD600 (polymyxin B 0.75 µg/mL)
COCCNC(=O)c1ccc(OC)cc1OC1CCN(Cc2ccc(Cl)c(F)c2)CC1,0.46,
CCOc1ccc2nc(N3CCCC(N(C)CCc4cn[nH]c4)CC3)nc(C)c2c1 (stereo not given),,0.811
COc1ccccc1CN1C(=O)O[C@@H]2CN(C(=O)NCc3ccccc3)C[C@@H]21,,0.797
Cc1ccc(-n2cc(CN3CCOCC3)c(-c3cccc(C)c3)n2)cc1,0.761,
COc1ccc(CCc2nnc(CCC(=O)N3CCC(c4ccc(F)cc4)C3)o2)cc1 (stereo not given),0.81,
O=C1CCC(C(=O)N2CCC(CCn3cccn3)CC2)CN1CC1CCCCC1 (stereo not given),0.985,
CCN1CCN(CC(=O)N2CCCC(CCc3ccccc3F)C2)CC1 (stereo not given),,0.851
COc1cccc(-c2ccc(NC(=O)C3CCCN(C(=O)c4cscn4)C3)cc2)c1 (stereo not given),0.642,
CSCCC(=O)NC1CCCc2nc(-c3ccccc3)ncc21 (stereo not given),0.931,
CCCc1cc(C(=O)NCc2nc(-c3ccc(NC(=O)c4ccc(COC)o4)cc3)oc2C)no1,,0.006
COc1cc(CC2(CCC(=O)N(C)Cc3nc4cc(C)c(C)cc4[nH]3)CCC(=O)N2)ccc1F (stereo not given),,0.86
C=C(C)CCC(C)N1CCC(N2CCC(C(=O)NCc3cccnc3)CC2)CC1 (stereo not given),1.11,
CCOC(=O)CC1COCCN1C(=O)c1csc2nc(-c3ccc(F)cc3)cn12 (stereo not given),1.23,
Cc1ccc2c(c1)CN(C(=O)CSc1ccccn1)CC(c1ccsc1)O2 (stereo not given),,0.071
CC(=O)c1ccc(F)c(-c2cc(C)cc3c2OC(CNC(=O)/C=C/c2ccccn2)C3)c1 (stereo not given),,0.008
O=C(Cn1cc2ccccc2n1)NC1CC(=O)N(Cc2ccc(F)cc2)C1 (stereo not given),0.873,
CC(C)C(=O)N1CCC(n2c(-c3ccc4c(c3)OCO4)nc3cc(C(F)(F)F)ccc32)CC1,,0.798
CCOc1cc(CN2CCCC(CNC(=O)c3cccs3)C2)ccc1OC (stereo not given),0.958,
O=C1N(CCc2ccccc2)C[C@@H]2C[C@@H](c3ccccc3)N3CCC[C@@]123,0.997,
COc1ccc(C(=O)NCCN2Cc3ccccc3OC(c3ccccc3)C2)c(OC)c1 (stereo not given),,0.015

# Given bar-delimited: part of the list above.
Compound | bacterial growth OD600 (polymyxin B 1 µg/mL) | bacterial growth OD600 (polymyxin B 0.75 µg/mL)
COc1cccc(-c2ccc(NC(=O)C3CCCN(C(=O)c4cscn4)C3)cc2)c1 (stereo not given) | 0.642 | 
CSCCC(=O)NC1CCCc2nc(-c3ccccc3)ncc21 (stereo not given) | 0.931 | 
